Amino acid sequences for entries named in this document (tags omitted). Residues count along the entry.
UniProt P06756, 31-1048, chain 1 of 2: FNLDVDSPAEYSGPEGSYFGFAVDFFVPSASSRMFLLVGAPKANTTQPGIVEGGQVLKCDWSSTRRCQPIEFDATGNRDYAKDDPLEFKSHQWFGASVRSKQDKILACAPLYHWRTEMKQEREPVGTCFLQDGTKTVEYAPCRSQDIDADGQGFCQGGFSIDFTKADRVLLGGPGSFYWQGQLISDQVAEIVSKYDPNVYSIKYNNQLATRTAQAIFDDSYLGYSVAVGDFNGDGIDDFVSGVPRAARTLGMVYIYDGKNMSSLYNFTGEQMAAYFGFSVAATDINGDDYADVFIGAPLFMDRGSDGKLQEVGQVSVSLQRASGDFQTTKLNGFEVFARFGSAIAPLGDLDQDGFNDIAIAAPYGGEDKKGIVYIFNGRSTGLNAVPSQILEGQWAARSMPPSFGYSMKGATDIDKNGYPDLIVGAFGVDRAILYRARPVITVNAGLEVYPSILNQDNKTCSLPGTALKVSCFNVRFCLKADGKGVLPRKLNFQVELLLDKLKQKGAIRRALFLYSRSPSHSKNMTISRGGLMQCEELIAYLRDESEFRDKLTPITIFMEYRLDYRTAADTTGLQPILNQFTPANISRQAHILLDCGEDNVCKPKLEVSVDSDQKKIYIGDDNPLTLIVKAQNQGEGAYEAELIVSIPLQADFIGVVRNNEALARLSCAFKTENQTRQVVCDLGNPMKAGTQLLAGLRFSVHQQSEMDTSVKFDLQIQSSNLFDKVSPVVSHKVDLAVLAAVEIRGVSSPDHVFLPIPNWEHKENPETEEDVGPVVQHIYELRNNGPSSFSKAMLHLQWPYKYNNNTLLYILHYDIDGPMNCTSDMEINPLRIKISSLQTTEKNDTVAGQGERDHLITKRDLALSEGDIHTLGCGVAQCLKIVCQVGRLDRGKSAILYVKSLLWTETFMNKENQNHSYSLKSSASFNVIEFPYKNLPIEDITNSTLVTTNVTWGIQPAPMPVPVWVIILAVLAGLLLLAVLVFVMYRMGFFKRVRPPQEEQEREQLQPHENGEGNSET
αVβ3 integrin on HUVECs (normal human umbilical vein endothelial cells), UniProt P05106, 27-788, chain 2 of 2: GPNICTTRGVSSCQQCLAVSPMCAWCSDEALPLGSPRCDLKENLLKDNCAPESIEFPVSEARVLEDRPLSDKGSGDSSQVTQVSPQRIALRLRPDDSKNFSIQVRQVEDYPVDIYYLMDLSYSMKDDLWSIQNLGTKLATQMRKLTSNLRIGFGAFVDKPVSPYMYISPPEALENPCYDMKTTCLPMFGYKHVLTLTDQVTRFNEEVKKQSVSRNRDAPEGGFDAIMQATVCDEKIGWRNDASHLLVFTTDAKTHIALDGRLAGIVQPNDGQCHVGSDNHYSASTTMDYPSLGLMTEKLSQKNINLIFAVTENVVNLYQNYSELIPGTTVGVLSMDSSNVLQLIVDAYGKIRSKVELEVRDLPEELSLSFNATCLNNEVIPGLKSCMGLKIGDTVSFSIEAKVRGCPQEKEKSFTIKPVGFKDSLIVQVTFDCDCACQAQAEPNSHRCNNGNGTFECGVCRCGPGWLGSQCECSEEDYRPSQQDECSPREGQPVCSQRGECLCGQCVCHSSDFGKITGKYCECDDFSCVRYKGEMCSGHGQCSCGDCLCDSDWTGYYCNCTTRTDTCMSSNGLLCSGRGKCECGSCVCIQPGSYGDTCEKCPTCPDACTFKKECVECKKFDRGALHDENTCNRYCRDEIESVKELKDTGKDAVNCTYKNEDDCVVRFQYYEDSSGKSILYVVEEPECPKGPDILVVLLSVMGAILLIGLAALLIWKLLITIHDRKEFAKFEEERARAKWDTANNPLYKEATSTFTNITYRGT

According to patent US20120101040A1 (FUJIFILM, published 2012):

Target: T1, αVβ3 integrin on HUVECs (normal human umbilical vein endothelial cells) (human, UniProt P06756 31-1048; P05106 27-788)
T1 construct: whole, on cells; Never tested as a purified protein
Experiment: HUVEC adhesion to coated plate, inhibited by anti-αV antibody, DNA assay
Protocol: DNA assay was performed for quantitative determination of the number of cells on the obtained plates. 100 μl of SDS solution (i.e., a solution obtained by dissolving 20 mg of SDS in 100 mL of 1×SSC solution (obtained by dissolving 17.999 g of NaCl and 8.823 g of Na₃-citrate in 2 L of ultrapure water)) was added to wells of the obtained plates. Each plate was allowed to stand still at 37° C. for 1 hour. The total amount of each obtained solution was transferred to a 96-well black plate (Non-treated) and 100 μL of a Hoechst solution (obtained by mixing 20 μl of Hoechst 33258 with 20 mL of a 1×SSC solution) was added to every well, followed by determination of the fluorescence intensity using a plate reader. The fluorescence intensity was measured using a Gemini EM plate reader (Molecular Devices Corporation) at an excitation wavelength of 355 nm and a determination wavelength of 460 nm. A calibration curve was created using a suspension containing HUVECs at the adjusted number of cells.
Specifically, cell adhesion experiments were conducted as described in (2) above. […] The time for cell adhesion was determined to be 1 hour at 37° C. as in the case of (2) above. Quantitative determination of the number of cells was carried out by DNA assay as in the case of (2) above.

binding result: binds
B1: CBE3 recombinant gelatin (other)
chain: GAPGAPGLQGAPGLQGMPGERGAAGLPGPKGERGDAGPKGADGAPGAPGLQGMPGERGAAGLPGPKGERGDAGPKGADGAPGKDGVRGLAGPIGPPGERGAAGLPGPKGERGDAGPKGADGAPGKDGVRGLAGPIGPPGPAGAPGAPGLQGMPGERGAAGLPGPKGERGDAGPKGADGAPGKDGVRGLAGPPGAPGLQGAPGLQGMPGERGAAGLPGPKGERGDAGPKGADGAPGAPGLQGMPGERGAAGLPGPKGERGDAGPKGADGAPGKDGVRGLAGPIGPPGERGAAGLPGPKGERGDAGPKGADGAPGKDGVRGLAGPIGPPGPAGAPGAPGLQGMPGERGAAGLPGPKGERGDAGPKGADGAPGKDGVRGLAGPPGAPGLQGAPGLQGMPGERGAAGLPGPKGERGDAGPKGADGAPGAPGLQGMPGERGAAGLPGPKGERGDAGPKGADGAPGKDGVRGLAGPIGPPGERGAAGLPGPKGERGDAGPKGADGAPGKDGVRGLAGPIGPPGPAGAPGAPGLQGMPGERGAAGLPGPKGERGDAGPKGADGAPGKDGVRGLAGPPG
notes: Coated uncrosslinked from PBS solution onto non-treated 96-well plates in the cell adhesion tests; also called R-Gel
